Assay results reported in article PMC11103506.
These are yes or no findings as the source states them, for the method shown. For part of these data: Binding seen in cells or lysates may run through a third protein. Some entries that bind do so weakly or less than the wild type. For part of these data: Sequences can lack the tags named with a protein. Each block holds one molecule with its values, some of them ahead of it.

Protein sequences, listed by entry. Tags and fused reporters are not part of them.
UniProt P29351: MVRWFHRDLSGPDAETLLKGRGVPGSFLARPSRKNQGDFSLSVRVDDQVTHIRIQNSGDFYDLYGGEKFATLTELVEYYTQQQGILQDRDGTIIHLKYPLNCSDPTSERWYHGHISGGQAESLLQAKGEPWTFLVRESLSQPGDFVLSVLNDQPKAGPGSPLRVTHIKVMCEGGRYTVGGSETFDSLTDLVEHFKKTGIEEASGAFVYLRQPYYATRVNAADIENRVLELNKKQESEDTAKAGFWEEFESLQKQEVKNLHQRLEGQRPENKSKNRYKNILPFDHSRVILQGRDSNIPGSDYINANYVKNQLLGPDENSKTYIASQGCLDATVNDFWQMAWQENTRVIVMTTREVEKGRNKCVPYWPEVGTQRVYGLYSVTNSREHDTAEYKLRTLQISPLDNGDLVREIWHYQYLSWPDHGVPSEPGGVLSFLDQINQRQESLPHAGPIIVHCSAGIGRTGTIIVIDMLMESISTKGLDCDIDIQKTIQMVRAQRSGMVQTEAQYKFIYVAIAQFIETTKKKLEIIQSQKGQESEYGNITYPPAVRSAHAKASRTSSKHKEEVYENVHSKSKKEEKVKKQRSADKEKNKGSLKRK

Assays:
[1] = target: T1, CD16 receptor (FcγRIIIA/CD16), endogenous in Raw264.7 (mouse (endogenous in Raw264.7)) (UniProt P08508); assay: co-IP; endogenous proteins in Raw264.7 stimulated with conditioned medium of 4T1 cells (the text says co-cultured with 4T1 for Vtn-C1qbp); whole lysate, and also the membrane fraction for Vtn-C1qbp; antibody-coated Protein A/G magnetic beads, overnight at 4 °C; washes in PBS + 0.5% Tween-20, pH 7.4
T1 sequence: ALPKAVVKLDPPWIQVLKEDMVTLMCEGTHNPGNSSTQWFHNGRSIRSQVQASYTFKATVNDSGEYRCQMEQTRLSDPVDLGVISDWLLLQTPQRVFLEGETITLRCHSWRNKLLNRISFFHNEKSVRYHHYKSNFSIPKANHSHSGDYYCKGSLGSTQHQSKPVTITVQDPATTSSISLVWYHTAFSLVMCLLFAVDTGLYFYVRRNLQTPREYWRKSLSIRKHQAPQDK

[2] = target: T2, complement C1Q binding protein (C1qbp), endogenous in Raw264.7 macrophages (mouse (endogenous in Raw264.7)) (UniProt O35658); assay: flow cytometry on cells; control or C1qbp-knockdown Raw264.7 cells stimulated with conditioned medium from 4T1 cells expressing Myc-tagged Vtn; Myc-Vtn detected on the cell surface
T2 sequence: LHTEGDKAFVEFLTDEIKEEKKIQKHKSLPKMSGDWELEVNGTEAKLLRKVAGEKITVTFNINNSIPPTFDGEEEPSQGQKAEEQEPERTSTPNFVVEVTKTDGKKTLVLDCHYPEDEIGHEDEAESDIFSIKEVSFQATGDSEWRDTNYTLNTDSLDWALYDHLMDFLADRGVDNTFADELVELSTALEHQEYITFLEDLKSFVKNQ

[3] = target: T2, complement C1Q binding protein (C1qbp), endogenous in Raw264.7 macrophages (mouse (endogenous in Raw264.7)); assay: co-IP; endogenous proteins in Raw264.7 stimulated with conditioned medium of 4T1 cells (the text says co-cultured with 4T1 for Vtn-C1qbp); whole lysate, and also the membrane fraction for Vtn-C1qbp; antibody-coated Protein A/G magnetic beads, overnight at 4 °C; washes in PBS + 0.5% Tween-20, pH 7.4
[4] = target: T3, Flag-tagged C1qbpΔαA (C1qbp lacking the αA domain, amino acid residues 77-96) (mouse) (UniProt O35658); assay: co-IP; HEK293T cells co-transfected with Myc-tagged Vtn and Flag-tagged full-length C1qbp or C1qbpΔαA; western blotting
T3 sequence: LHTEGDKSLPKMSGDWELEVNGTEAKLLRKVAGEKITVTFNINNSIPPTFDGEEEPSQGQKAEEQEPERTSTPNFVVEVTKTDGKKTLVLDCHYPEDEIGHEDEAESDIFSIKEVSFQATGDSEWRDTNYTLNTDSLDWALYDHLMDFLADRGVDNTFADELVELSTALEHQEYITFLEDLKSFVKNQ

[5] = target: T4, Flag-tagged full-length C1qbp (C1qbp FL) (mouse) (UniProt O35658); assay: as above
T4 sequence: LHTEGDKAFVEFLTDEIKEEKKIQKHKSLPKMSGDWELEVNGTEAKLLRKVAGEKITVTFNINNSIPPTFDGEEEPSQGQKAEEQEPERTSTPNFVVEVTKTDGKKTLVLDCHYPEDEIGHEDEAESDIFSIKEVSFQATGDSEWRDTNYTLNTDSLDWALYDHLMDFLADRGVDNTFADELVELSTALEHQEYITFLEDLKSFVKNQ

B1: Myc-tagged Vtn (vitronectin) in conditioned medium of 4T1 (Myc-Vtn^OE) cells (ligand, UniProt P29788 20-478)
chain: DQESCKGRCTQGFMASKKCQCDELCTYYQSCCADYMEQCKPQVTRGDVFTMPEDDYWSYDYVEEPKNNTNTGVQPENTSPPGDLNPRTDGTLKPTAFLDPEEQPSTPAPKVEQQEEILRPDTTDQGTPEFPEEELCSGKPFDAFTDLKNGSLFAFRGQYCYELDETAVRPGYPKLIQDVWGIEGPIDAAFTRINCQGKTYLFKGSQYWRFEDGVLDPGYPRNISEGFSGIPDNVDAAFALPAHRYSGRERVYFFKGKQYWEYEFQQQPSQEECEGSSLSAVFEHFALLQRDSWENIFELLFWGRSSDGAREPQFISRNWHGVPGKVDAAMAGRIYVTGSLSHSAQAKKQKSKRRSRKRYRSRRGRGHRRSQSSNSRRSSRSIWFSLFSSEESGLGTYNNYDYDMDWLVPATCEPIQSVYFFSGDKYYRVNLRTRRVDSVNPPYPRSIAQYWLGCPTSEK
- binding [2]: binds

B3: Myc-tagged Vtn expressed in HEK293T cells (ligand, UniProt P29788 20-478)
chain: DQESCKGRCTQGFMASKKCQCDELCTYYQSCCADYMEQCKPQVTRGDVFTMPEDDYWSYDYVEEPKNNTNTGVQPENTSPPGDLNPRTDGTLKPTAFLDPEEQPSTPAPKVEQQEEILRPDTTDQGTPEFPEEELCSGKPFDAFTDLKNGSLFAFRGQYCYELDETAVRPGYPKLIQDVWGIEGPIDAAFTRINCQGKTYLFKGSQYWRFEDGVLDPGYPRNISEGFSGIPDNVDAAFALPAHRYSGRERVYFFKGKQYWEYEFQQQPSQEECEGSSLSAVFEHFALLQRDSWENIFELLFWGRSSDGAREPQFISRNWHGVPGKVDAAMAGRIYVTGSLSHSAQAKKQKSKRRSRKRYRSRRGRGHRRSQSSNSRRSSRSIWFSLFSSEESGLGTYNNYDYDMDWLVPATCEPIQSVYFFSGDKYYRVNLRTRRVDSVNPPYPRSIAQYWLGCPTSEK
- binding [4]: binds
- binding [5]: binds

B4: CD16 receptor (FcγRIIIA/CD16), endogenous in Raw264.7 (receptor, UniProt P08508 31-261)
chain: ALPKAVVKLDPPWIQVLKEDMVTLMCEGTHNPGNSSTQWFHNGRSIRSQVQASYTFKATVNDSGEYRCQMEQTRLSDPVDLGVISDWLLLQTPQRVFLEGETITLRCHSWRNKLLNRISFFHNEKSVRYHHYKSNFSIPKANHSHSGDYYCKGSLGSTQHQSKPVTITVQDPATTSSISLVWYHTAFSLVMCLLFAVDTGLYFYVRRNLQTPREYWRKSLSIRKHQAPQDK
- binding [3]: binds

Second part, the molecule after the results:

- binding [1]: binds
Molecule: tyrosine phosphatase Src homologous region 2 containing phosphatase 1 (Shp1), endogenous in Raw264.7 (from UniProt P29351 1-595) (enzyme)

- binding [3]: binds
B2: Vitronectin (Vtn) secreted by 4T1 tumor cells (ligand, UniProt P29788 20-478)
chain: DQESCKGRCTQGFMASKKCQCDELCTYYQSCCADYMEQCKPQVTRGDVFTMPEDDYWSYDYVEEPKNNTNTGVQPENTSPPGDLNPRTDGTLKPTAFLDPEEQPSTPAPKVEQQEEILRPDTTDQGTPEFPEEELCSGKPFDAFTDLKNGSLFAFRGQYCYELDETAVRPGYPKLIQDVWGIEGPIDAAFTRINCQGKTYLFKGSQYWRFEDGVLDPGYPRNISEGFSGIPDNVDAAFALPAHRYSGRERVYFFKGKQYWEYEFQQQPSQEECEGSSLSAVFEHFALLQRDSWENIFELLFWGRSSDGAREPQFISRNWHGVPGKVDAAMAGRIYVTGSLSHSAQAKKQKSKRRSRKRYRSRRGRGHRRSQSSNSRRSSRSIWFSLFSSEESGLGTYNNYDYDMDWLVPATCEPIQSVYFFSGDKYYRVNLRTRRVDSVNPPYPRSIAQYWLGCPTSEK
